Measured values: patent US20230056846A1, “METHODS AND COMPOSITIONS FOR CANCER IMMUNOTHERAPY” (MEMORIAL SLOAN KETTERING CANCER CENTER, priority 2020, published 2023)
For at least one compound, name, drawing or mass did not settle the structure.

Assays:
[1] = tested on: CT26 colon cancer cells; experiment: pre-treated CT26 cells implanted in mice randomized to anti PD-1 or IgG isotype control; type: in vivo, mouse
From the text: FIGS. 4A-B. Treatment of colon cancer cells with TMZ and cisplatin induces a high frameshift load leading to the spontaneous immuno-rejection of tumors in a preclinical mouse model. FIG. 4A. […] Treatment with either anti PD-1 or the IgG isotype control was commenced when the tumors reached a volume of 200 mm^3. […] The MSH2 KO cell line was used as a positive control for PD-1 blockade. FIG. 4B. Tumors were subjected to whole exome sequencing at 250x and immunoediting was studied by comparing mutation losses before and after engraftment.
Experiments were performed to examine the effect of PD-1 blockade on the growth of tumors generated following injection of mice with tumor cells that had been pre-treated with either a vehicle control, TMZ alone, cisplatin alone, or TMZ/CDDP combination. 1 million cells from control or treatment groups (pre-treated for 8 weeks) were implanted subcutaneously into mice (n=10) and mice were then randomly assigned to either an anti PD-1 treatment group (treated with anti PD-1 at 6 mg/kg twice weekly when tumor reached 200 mm^3) or an IgG isotype control group. CT26 MSH2 KO cells were used as a positive control (FIG. 4). […] For tumors generated following injection of cells pre-treated with the combination of both temozolomide and cisplatin, out of 10 implanted tumors only one was not rejected (9 out of 10 were rejected). […]

[2] = tested on: pretreated metastatic colorectal cancer with MGMT promoter methylation; settings: TMZ monotherapy, phase 2; cited from earlier work

**Q.** What does the source list for `Cn1nnc2c(C(N)=O)ncn2c1=O` [TMZ, temozolomide]?
**A.** effect of PD-1 blockade compared with isotype control on tumors from pre-treated cells ([1]; anti PD-1 6 mg/kg twice weekly from 200 mm^3): no effect of PD-1 blockade; tumor growth compared to control ([1]; cells pre-treated 8 weeks, 1 week wash out): no significant difference in tumor growth compared to control; clinical activity [2]: modest activity
